Assay results published in paper PMC9883498.
Results are given in words; binding and its absence hold for the method and conditions named. In cells and extracts the contact can be indirect. Some results given as binding are weak or reduced against the parent protein; the word gives no strength. Blank lines part the entries; values can stand above or below the molecule they belong to.

Sequences of proteins named here, by UniProt entry; tags and fusion partners are left off.
UniProt Q15717: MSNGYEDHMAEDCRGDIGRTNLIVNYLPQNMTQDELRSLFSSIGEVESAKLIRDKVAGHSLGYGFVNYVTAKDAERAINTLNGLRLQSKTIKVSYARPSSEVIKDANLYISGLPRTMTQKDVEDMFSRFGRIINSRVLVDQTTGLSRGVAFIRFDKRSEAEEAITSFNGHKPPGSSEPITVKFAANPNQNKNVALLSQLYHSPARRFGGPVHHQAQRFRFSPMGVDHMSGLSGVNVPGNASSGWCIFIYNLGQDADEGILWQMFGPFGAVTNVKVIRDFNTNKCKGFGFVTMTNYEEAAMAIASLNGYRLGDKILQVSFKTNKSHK
UniProt P51149: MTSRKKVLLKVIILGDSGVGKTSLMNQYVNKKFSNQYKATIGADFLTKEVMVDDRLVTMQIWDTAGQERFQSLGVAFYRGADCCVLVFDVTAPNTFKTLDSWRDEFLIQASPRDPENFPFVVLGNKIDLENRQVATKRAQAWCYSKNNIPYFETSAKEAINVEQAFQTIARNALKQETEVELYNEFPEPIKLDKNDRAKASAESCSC

Legend:
[1] = target: HuR (human (endogenous in MCF7)) (UniProt Q15717); assay: co-IP; HuR antibody (normal IgG as control) on protein G sepharose beads, cell lysate in NT2 buffer, 4 °C overnight; cells unexposed or exposed to UVC (10 J/m^2), collected 2 h post exposure; immunoblot of immunoprecipitates
[2] = target: HuR (human (endogenous in MCF7)) (UniProt Q15717); assay: co-IP; HuR antibody (normal IgG as control), immunoprecipitation from cell supernatant (extracellular medium); cells unexposed or exposed to UVC, collected 2 h post exposure; immunoblot of immunoprecipitates

binding [1]: binds
binding [2]: binds
Molecule: Rab7 (from UniProt P51149 1-207)

binding [1]: binds
binding [2]: binds
B1: flotillin 1 (protein, UniProt O75955 1-427)
chain: MFFTCGPNEAMVVSGFCRSPPVMVAGGRVFVLPCIQQIQRISLNTLTLNVKSEKVYTRHGVPISVTGIAQVKIQGQNKEMLAAACQMFLGKTEAEIAHIALETLEGHQRAIMAHMTVEEIYKDRQKFSEQVFKVASSDLVNMGISVVSYTLKDIHDDQDYLHSLGKARTAQVQKDARIGEAEAKRDAGIREAKAKQEKVSAQYLSEIEMAKAQRDYELKKAAYDIEVNTRRAQADLAYQLQVAKTKQQIEEQRVQVQVVERAQQVAVQEQEIARREKELEARVRKPAEAERYKLERLAEAEKSQLIMQAEAEAASVRMRGEAEAFAIGARARAEAEQMAKKAEAFQLYQEAAQLDMLLEKLPQVAEEISGPLTSANKITLVSSGSGTMGAAKVTGEVLDILTRLPESVERLTGVSISQVNHKPLRTA
